Article PMC4787770
No constants are given. Whether binding was seen depends on the method and setting. Binding seen in cells or lysates may run through a third protein. Some results given as binding are weak or reduced against the parent protein; the word gives no strength. Tags and fused reporters may be left off the sequences shown.

Assays:
HPL-1::GFP (C. elegans) = molecular target: T1, HPL-1::GFP (C. elegans) (UniProt G5EET5); test: co-IP; 2 mg total protein from eggs of hpl-1::GFP or hpl-2::GFP lines in IP buffer B (300 mM KCl, 0.2% Igepal), pre-cleared, Magnetic GFP-Trap beads 2 h at 4°C, five washes; western blotting
T1 sequence: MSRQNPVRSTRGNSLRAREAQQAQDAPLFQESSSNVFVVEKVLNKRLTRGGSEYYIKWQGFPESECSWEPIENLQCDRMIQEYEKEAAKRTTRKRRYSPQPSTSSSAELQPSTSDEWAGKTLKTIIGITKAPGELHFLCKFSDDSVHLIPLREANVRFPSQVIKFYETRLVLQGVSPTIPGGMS

HPL-2::GFP (C. elegans) = molecular target: T2, HPL-2::GFP (C. elegans) (UniProt G5EDE2); test: as above
T2 sequence: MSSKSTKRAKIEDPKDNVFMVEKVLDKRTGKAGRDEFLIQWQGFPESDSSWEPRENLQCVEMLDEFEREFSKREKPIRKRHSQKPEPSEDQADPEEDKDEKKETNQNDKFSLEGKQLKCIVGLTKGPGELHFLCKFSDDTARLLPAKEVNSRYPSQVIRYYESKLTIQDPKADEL

B1: SPR-5 (protein, UniProt Q9XWP6 1-770)
chain: MSSDTGSEYLDEEIRGDELGPSIDDNALAAAASAARLPFDRPTDHELAFFPELWEHKTAVEVFLLLRNSTLATWQYNPLKECTALDVRNNVFPPFNSDLDLIQNIVHYLSRHGLINFGRYVRSTKISRFLVRDRRSVIVIGAGAAGISAATQLESFGFDVIVLEARNCIGGRIHSFKSKSGEIMETGGDTLRKIEDSPMATLLHQVNFEEHGVFDFTSVFVEGRPLNEEKIHLFLDHYKSAHGALNYQAHQCEHRDDQGSFISRQQAYENLLSMCERGTLIKYYNFCKSLETVARAREHHFNQMKQLRMTALMAENQLKKMEEEGNLEQDPVLRRSLKRDIATSLEKFEEVADAFETADNHWQRLNEHPQAKQYMHPGSEFATFNFMLGFEEYLVGAQLEKVQFSCDSMQNKENGVAARLTEGIAELLTQLSEKRKLDIRLKHRVLDIDYSGFEHVLLKVQRENGDIEEMKAAFVVSTLPIGVLKKTIIADERAPTFTPSLPDKKVEAIRNIGCGSVNKCILEFDRVFWTANGGRNQFVTVSPNIKTRGSMNIWSSVPGSKVLCTYIVGEEAMLELPDDVIIQNAMINLQKAFGNNCPRAPISAHITRWHDDELAFGSGAFMSLRTETTSFDDVMEPLKTSDGMSRVYFAGEHTCSSYTSTIQGAWMSGARAAADISNDHIGIGFVDISGTRGQRGDEEEELLIEVDIDGKIPEKDENEAVADIPNAPNAPNAQKPEEIPKIAEEIELVAEAEKAEKAEVQLEPLVPTVE
- binding (HPL-1::GFP (C. elegans)): binds
- binding (HPL-2::GFP (C. elegans)): no binding
